No constants are given. Whether binding was seen depends on the method and setting. Some binding calls cover weakened binding; strength is not graded here.
Target: human IgE (human) (UniProt P01854)
Assay: SPR

Sequences of proteins named here, by UniProt entry; tags and fusion partners are left off. A change or cut given only in a name is not applied to a line headed by its entry. A line that says so, or that is headed by a name, gives the form on record, which may keep a tag or linker.
human IgE (P01854, form named): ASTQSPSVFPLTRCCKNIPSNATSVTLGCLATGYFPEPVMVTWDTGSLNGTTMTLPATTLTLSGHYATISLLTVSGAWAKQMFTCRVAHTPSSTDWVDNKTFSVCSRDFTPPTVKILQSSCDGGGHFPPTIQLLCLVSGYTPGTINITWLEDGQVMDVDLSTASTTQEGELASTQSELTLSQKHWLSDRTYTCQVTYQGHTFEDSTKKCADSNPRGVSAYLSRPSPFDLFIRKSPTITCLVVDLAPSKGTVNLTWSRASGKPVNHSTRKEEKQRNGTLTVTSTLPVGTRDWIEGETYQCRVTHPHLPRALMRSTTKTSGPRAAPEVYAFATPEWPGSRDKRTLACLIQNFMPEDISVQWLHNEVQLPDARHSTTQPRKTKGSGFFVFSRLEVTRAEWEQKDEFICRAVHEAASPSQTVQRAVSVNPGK

B1: Ab2 (antibody, human IgG1, kappa, V domains shown)
VH: QSVEESGGRLVTPGTPLTLTCTVSGFSLSSFNMDWVRQAPGEGLEWIGAVSTGGSAYYAKWAKGRFTISKTSTAVDLKITSPTTEDTATYFCARVDSSGWGYFDLWGQGTLVTVSS
VL: AIEMTQTPFSVSAAVGGTVTINCQASENIYSSLAWYQQKPGQPPKLLIYYASNLASGVSSRFKGSGSGTDFTLTISDLECADAATYYCQSYYFISSTDFNAFGGGTEVVVKR
binding: binds

B2: Ab3 (antibody, human IgG1, kappa, V domains shown)
VH: QSLEESGGDLVKPGASLTLTCTTSVFDLSSYYWICWVRQAPGKGLEWIACVYATSGSTDYATWAKGRLTISKASSTTVTLQMTSLTAADTATYFCARGGIYGGDGFNLWGPGTLVTVSS
VL: AFELTQTPASVEAAVGGTVTINCQASESISNWLAWYQQKPGQPPKLLIYRASTLTSGVPSRFKGSGSGTEFTLTISDLECADAATYYCQSYDPSIIDGFAFGGGTEVVVKR
binding: binds
